{
  "source": "patent US11141491B2",
  "about": "“PH-sensitive lipid nanoparticles for encapsulation of anticancer drugs and microRNA and use thereof” (National Yang-Ming University, priority 2018, dated 2021)",
  "assay": "pH-sensitive release (dialysis against PBS)",
  "format": "physicochemical",
  "settings": "both pH 7.4 and pH 6.5, 37° C.",
  "description": "Irinotecan- or miR-loaded formulations were placed in a dialysis bag (1,000-3,500 MWCO) and dialyzed separately against PBS at pH 7.4 and 6.5. At the indicated time, solution was withdrawn from the incubation medium. The irinotecan concentrations were determined by HPLC to calculate the cumulative drug release %.",
  "note": "Some of these results come from one statement about several compounds together.",
  "data": [
    {"smiles": "CCc1c2c(nc3ccc(OC(=O)N4CCC(N5CCCCC5)CC4)cc13)-c1cc3c(c(=O)n1C2)COC(=O)[C@]3(O)CC", "note": "[irinotecan]", "values": [
      {"measurement": "released during the first 1 h", "result": "more than 95%"}
    ]}
  ]
}
